Measurements taken from patent US20200140512A1.

Biological target: cynomolgus PD-1-His (cynomolgus monkey)
Test: Octet, antibody captured on anti-human Fc (AHC) biosensors, dipped into multiple concentrations of PD-1-His

binding: no binding
B1: XENP28519 (bivalent mAb based on humanized mAb A) (antibody, human IgG1, kappa, V domains shown)
VH: QVQLQESGPGLVKPSQTLSLTCTVSGHSITSDYAWNWIRQPPGKKLEWIGYISYSGYTTYNPSLKSRVTISRDTSKNQFSLKLSSVTAADTAVYFCARDLDYGPWFAYWGQGTLVTVSS
VL: DIQMTQSPSSLSASVGDRVTITCRASENIHNYLAWYQQKPGKSPKLLVYNVKTLADGVPSRFSGSGSGTDYTLTISSLQPEDFATYYCQHFWSSPWTFGGGTKVEIKR

These are yes or no findings as the source states them, for the method shown.
